Changes are numbered by the printed parent chain. No constants are given. Whether binding was seen depends on the method and setting. Binding seen in cells or lysates may run through a third protein. Some results given as binding are weak or reduced against the parent protein; the word gives no strength. For some assays here: Sequences can lack the tags named with a protein.
Experiments:
Assay in all cases: co-IP
[1] = molecular target: T1, Mtw1 (bait of the co-IP in yeast) (budding yeast) (UniProt P39731)
T1 sequence: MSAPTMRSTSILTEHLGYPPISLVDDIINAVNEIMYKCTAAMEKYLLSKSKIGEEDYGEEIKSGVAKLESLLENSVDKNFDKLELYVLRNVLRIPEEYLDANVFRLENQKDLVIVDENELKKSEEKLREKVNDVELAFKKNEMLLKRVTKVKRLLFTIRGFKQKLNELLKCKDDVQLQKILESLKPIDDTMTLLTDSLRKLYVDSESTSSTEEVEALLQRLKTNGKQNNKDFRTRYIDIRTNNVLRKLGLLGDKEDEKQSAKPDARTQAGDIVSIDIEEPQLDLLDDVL

Amino acid sequences for entries named in this document (tags omitted).
UniProt P10591: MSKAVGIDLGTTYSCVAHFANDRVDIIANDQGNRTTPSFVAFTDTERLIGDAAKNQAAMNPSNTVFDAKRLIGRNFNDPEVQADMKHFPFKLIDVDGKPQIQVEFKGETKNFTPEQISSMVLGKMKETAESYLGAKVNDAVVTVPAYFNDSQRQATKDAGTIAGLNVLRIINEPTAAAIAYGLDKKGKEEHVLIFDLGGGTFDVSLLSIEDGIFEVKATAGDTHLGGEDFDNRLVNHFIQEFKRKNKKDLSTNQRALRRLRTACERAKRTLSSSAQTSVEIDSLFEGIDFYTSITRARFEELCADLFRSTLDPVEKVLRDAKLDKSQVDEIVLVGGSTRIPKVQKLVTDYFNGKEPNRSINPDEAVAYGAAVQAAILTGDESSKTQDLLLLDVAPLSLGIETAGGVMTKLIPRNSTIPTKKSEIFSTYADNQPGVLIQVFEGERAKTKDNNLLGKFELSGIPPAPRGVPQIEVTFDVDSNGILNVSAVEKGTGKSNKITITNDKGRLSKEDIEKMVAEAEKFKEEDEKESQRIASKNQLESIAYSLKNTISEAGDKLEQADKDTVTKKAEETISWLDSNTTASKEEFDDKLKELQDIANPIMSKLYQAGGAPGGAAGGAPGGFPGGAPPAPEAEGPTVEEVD

[2] = molecular target: T2, Pim1 S974A (budding yeast) (UniProt P36775)
T2 sequence: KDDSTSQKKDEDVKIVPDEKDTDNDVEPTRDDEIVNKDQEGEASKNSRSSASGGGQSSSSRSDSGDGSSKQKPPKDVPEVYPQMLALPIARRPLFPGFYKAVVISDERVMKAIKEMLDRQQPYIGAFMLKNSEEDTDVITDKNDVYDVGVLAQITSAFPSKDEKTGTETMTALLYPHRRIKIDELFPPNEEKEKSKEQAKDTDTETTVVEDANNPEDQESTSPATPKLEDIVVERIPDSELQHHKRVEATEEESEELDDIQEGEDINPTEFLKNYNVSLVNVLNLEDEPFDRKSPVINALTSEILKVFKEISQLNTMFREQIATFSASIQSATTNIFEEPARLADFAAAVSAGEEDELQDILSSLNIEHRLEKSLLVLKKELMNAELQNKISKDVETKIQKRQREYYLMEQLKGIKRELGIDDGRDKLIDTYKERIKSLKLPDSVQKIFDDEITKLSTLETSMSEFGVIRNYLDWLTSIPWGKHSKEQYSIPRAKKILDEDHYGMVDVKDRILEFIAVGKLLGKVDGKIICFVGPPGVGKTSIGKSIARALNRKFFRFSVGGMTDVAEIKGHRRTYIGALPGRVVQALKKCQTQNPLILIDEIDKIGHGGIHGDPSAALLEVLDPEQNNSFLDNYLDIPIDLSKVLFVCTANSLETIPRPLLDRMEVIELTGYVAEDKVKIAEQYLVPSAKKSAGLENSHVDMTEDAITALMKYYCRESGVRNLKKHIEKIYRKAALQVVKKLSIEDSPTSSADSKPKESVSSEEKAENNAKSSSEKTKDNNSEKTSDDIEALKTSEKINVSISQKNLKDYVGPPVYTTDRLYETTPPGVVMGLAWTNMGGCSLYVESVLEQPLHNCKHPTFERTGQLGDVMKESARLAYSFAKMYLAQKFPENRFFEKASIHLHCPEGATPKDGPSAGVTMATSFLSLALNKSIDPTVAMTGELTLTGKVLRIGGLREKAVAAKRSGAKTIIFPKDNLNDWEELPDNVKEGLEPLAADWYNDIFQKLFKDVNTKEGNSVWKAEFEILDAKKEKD

[3] = molecular target: T3, Mtw1 Y86F (budding yeast) (UniProt P39731)
T3 sequence: T1 sequence with Y86F

[4] = molecular target: T4, HA-tagged Ura8 (budding yeast) (UniProt P38627)
T4 sequence: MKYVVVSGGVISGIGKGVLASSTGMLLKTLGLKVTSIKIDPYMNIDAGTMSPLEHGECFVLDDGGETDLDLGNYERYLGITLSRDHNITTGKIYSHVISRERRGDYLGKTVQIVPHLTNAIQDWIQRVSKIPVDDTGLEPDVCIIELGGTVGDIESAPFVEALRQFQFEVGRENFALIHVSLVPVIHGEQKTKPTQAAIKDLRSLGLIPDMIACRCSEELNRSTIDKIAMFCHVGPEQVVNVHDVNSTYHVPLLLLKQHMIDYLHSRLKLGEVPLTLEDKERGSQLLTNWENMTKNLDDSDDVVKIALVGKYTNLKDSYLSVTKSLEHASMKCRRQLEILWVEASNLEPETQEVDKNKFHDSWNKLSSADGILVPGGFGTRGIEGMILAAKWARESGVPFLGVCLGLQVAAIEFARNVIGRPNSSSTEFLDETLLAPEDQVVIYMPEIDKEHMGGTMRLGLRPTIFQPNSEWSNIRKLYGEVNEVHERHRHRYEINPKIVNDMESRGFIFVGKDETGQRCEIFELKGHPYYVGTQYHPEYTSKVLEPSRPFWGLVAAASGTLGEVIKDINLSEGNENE

[5] = molecular target: T5, Ste11 (immunoprecipitated from yeast) (budding yeast) (UniProt P23561)
T5 sequence: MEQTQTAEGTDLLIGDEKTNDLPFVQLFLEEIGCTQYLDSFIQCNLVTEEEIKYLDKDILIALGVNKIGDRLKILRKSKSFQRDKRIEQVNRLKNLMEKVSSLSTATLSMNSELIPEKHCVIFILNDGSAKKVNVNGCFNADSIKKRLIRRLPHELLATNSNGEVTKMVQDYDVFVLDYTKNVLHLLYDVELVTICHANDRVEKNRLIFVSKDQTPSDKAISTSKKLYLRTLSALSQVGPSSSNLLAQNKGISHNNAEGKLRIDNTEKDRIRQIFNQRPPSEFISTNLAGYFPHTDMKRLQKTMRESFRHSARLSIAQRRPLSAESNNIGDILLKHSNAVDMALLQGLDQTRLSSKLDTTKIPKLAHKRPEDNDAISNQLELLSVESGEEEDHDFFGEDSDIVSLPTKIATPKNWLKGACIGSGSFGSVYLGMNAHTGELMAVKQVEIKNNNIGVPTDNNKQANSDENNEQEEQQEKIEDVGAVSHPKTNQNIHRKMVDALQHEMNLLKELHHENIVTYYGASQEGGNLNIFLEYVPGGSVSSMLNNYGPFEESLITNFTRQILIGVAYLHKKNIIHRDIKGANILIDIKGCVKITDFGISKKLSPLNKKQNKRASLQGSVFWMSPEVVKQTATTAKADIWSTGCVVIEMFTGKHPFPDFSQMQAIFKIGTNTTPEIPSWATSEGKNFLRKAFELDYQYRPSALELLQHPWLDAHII

Measured: binding

Ssa1 found by immunoblot in co-immunoprecipitates of client proteins from yeast (from UniProt P10591 1-642)
binds: all assays above

— paper doi:10.1101/2021.08.25.457671
